# From US20170321218A1, “FACTOR XIA-SPECIFIC APTAMERS” (CANADIAN BLOOD SERVICES, published 2017)
# A negative result means that nothing was seen under these conditions. For some assays here: Weaker means in comparison with the reference protein, sequence or condition of that experiment. For some assays here: Construct, isoform or probe ends are uncertain for at least one entry.
# Test system: Factor XIa (FXIa)
# Test: inhibition of the protein
# Conditions: S2366 amidolysis, slightly active; described as barely detectable affinity; purified native protein; single-stranded DNA; dose not given here
row,Sequence,functional effect of the aptamer
1,GAATTCTAATACGACTCACTATATGTCACTCTGATCAAAAATTTTGTAGTCATCTTGTTATGCGCGTCCAACACATCG [APT10_E],less active

# Same assay, conditions: S2366 amidolysis, slightly active; purified native protein; single-stranded DNA; dose not given here
row,Sequence,functional effect of the aptamer
1,GAATTCTAATACGACTCACTATATACGTGGTTCTTTTTTTAGGGAGTTCGATCCTGAGGCCTGCGTCCAACACATCG [NRMAPT 1],less active

# Same assay, conditions: S2366 amidolysis, slightly active; purified native protein; single-stranded DNA; variant of FELIAP (Apt10-10); dose not given here
row,Sequence,functional effect of the aptamer
1,GAATTCTAATACGACTCACTATAAACCTATCGGACTATTGTTAGTGATTTTTAGAGTGGCGTCCAACACATCG [APT10_D],less active

# Same assay, conditions: S2366 amidolysis; equivalent to SCRAPT; purified native protein; single-stranded DNA; variant of FELIAP (Apt10-10); dose not given here
row,Sequence,functional effect of the aptamer
1,TAAACCTATCGGACTATTGTTAGTGATTTTTA [FELIAP_32],not active

# Same assay, conditions: S2366 amidolysis; purified native protein; single-stranded DNA; dose not given here
row,Sequence,functional effect of the aptamer
1,GAATTCTAATACGACTCACTATAAACACACAAACCTATTTTTCGATTTTCCTGCCATCACTCCGCGTCCAACACATCG [NRMAPT20],not active
2,GAATTCTAATACGACTCACTATACACAAAAACTATATACCTGGTTCTTTTTTTAGTTTTTCGTGCGTCCAACACATCG [NRMAPT19],not active
3,GAATTCTAATACGACTCACTATACACGTGGTTCTTTATTTAGTTATGTCGTCGTTTTTTCATGCGTCCAACACATCG [NRMAPT15],not active
4,GAATTCTAATACGACTCACTATACACTGCGTCCAACACATCGTATTCATGCGTCCAACACATCG [Apt10-2],not active
5,GAATTCTAATACGACTCACTATACATAAAAACTATATACGTGGTTCTTTTTTTAGTTTTTCGTGCGTCCAACACATCG [NRMAPT 3],not active
6,GAATTCTAATACGACTCACTATACATAAAAACTATATACGTGGTTCTTTTTTTAGTTTTTCTTGCGTCCAACACATCG [NRMAPT11],not active
7,GAATTCTAATACGACTCACTATACATAAAAACTATATACGTTGTTCTTTTTTTAGTTTTTCGTGCGTCCAACACATCG [NRMAPT21],not active
8,GAATTCTAATACGACTCACTATACATAAAAACTATATACTTGGTTCTTTTTTTAGTTTTTCGTGCGTCCAACACATCG [NRMAPT18],not active
9,GAATTCTAATACGACTCACTATAGCGTATACGTGGTTCTTTTTTCGCAGGATAGTATGTATTTGCGTCCAACACATCG [NRMAPT 6],not active
10,GAATTCTAATACGACTCACTATAGCGTCCAACACATCGTATTCATGCGTCCAACACATCG [Apt10-1 (Apt4-1)],not active
11,GAATTCTAATACGACTCACTATAGGGAGGGCGTGGATGGCTGGTGTGAGGTCTTGTGTTTGTTGCGTCCAACACATCG [Apt10-8 (Apt4-3)],not active
12,GAATTCTAATACGACTCACTATAGGGAGGGCGTGGATGGCTGTTGTGAGGTCTTGTGTTTGTTGCGTCCAACACATCG [Apt10-5],not active
13,GAATTCTAATACGACTCACTATATGGGATGGCGTGGGAGGGCTGTAGGGAGCGTTCAGTGGGTGCGTCCAACACATCG [Apt10-3 (Apt4-2)],not active
14,GAATTCTAATACGACTCACTATATGGGATGGCGTGGGAGGGCTGTAGGGAGCGTTTAGTGGGTGCGTCCAACACATCG [Apt10-6],not active
15,GAATTCTAATACGACTCACTATATGGGATGGCGTGGGAGGGCTGTAGTGAGCGTTCAGTGGGTGCGTCCAACACATCG [Apt10-4 (Apt4-7)],not active
16,GAATTCTAATACGACTCACTATATGGGATGGCGTGGGAGGGCTGTAGTGAGCGTTCATTGGGTGCGTCCAACACATCG [Apt10-7],not active
17,GAATTCTAATACGACTCACTATATGGGATGGCGTGGGAGGGCTGTAGTGAGCGTTTAGTGGGTGCGTCCAACACATCG [Apt10-9],not active

# Same assay, conditions: S2366 amidolysis; purified native protein; single-stranded DNA; variant of FELIAP (Apt10-10); dose not given here
row,Sequence,functional effect of the aptamer
1,GAATTCTAATACGACTCACTATAAACCTATCGGACTATTGTCAGTGATTTTTATAGTGTGCGTCCAACACATCG [NRMAPT17],not active
2,GAATTCTAATACGACTCACTATAAACCTATCGGACTATTGTTAGTGATTTTTATAGTTTGCGTCCAACACATCG [APT10_A],active
3,GAATTCTAATACGACTCACTATAAACCTATCGGACTATTGTTAGTGATTTTTATATTGTGCGTCCAACACATCG [APT10_B],active
4,GAATTCTAATACGACTCACTATAAACCTATCGGACTATTGTTAGTTATTTTTATAGTGTGCGTCCAACACATCG [NRMAPT16],not active
5,GAATTCTAATACGACTCACTATAAACCTATCGGACTATTGTTATTGATTTTTATAGTGTGCGTCCAACACATCG [NRMAPT10],not active
6,GAATTCTAATACGACTCACTATAAACCTATCGTACTATTGTTAGTGATTTTTATAGTGTGCGTCCAACACATCG [NRMAPT 7],not active
7,GAATTCTAATACGACTCACTATAAACCTATCTGACTATTGTTAGTGATTTTTATAGTGTGCGTCCAACACATCG [NRMAPT 9],not active
8,GAATTCTAATACGACTCACTATAAACCTATTGGACTATTGTTAGTGATTTTTATAGTGTGCGTCCAACACATCG [NRMAPT14],not active

# Same assay, conditions: S2366 amidolysis; retains all anti-FXIa activity; purified native protein; single-stranded DNA; variant of FELIAP (Apt10-10); dose not given here
row,Sequence,functional effect of the aptamer
1,CTATAAACCTATCGGACTATTGTTAGTGATTTTTATAG [FELIAP_38],active

# Same assay, conditions: highest inhibition of S2366 amidolysis; purified native protein; single-stranded DNA; dose not given here
row,Sequence,functional effect of the aptamer
1,GAATTCTAATACGACTCACTATAAACCTATCGGACTATTGTTAGTGATTTTTATAGTGTGCGTCCAACACATCG [FELIAP (Apt10-10)],active

# Target: Factor XI (FXI zymogen) (UniProt P03951)
# Test: inhibition of the protein
# Conditions: 10 uM; thrombin activation of FXI with dextran sulphate unaffected; purified native protein; single-stranded DNA
row,Sequence,functional effect of the aptamer
1,GAATTCTAATACGACTCACTATAAACCTATCGGACTATTGTTAGTGATTTTTATAGTGTGCGTCCAACACATCG [FELIAP (Apt10-10)],not active
